Reference: PMC8630191
No constants are given. Whether binding was seen depends on the method and setting. In cells and extracts the contact can be indirect. Here binding means that the protein was enriched with, or labelled near, the bait; the list need not be complete. For some assays here: Sequences can lack the tags named with a protein. Values belong to the binder of their own block, whether it stands above or below them.

The chains behind the UniProt entries cited, without tags or fusion partners. Where a name states a change or a piece, a line headed by the entry shows the natural chain unless it says otherwise. A line that says so, or that is headed by a name, gives the form on record, which may keep a tag or linker. Residues count along the entry.
UniProt P62714: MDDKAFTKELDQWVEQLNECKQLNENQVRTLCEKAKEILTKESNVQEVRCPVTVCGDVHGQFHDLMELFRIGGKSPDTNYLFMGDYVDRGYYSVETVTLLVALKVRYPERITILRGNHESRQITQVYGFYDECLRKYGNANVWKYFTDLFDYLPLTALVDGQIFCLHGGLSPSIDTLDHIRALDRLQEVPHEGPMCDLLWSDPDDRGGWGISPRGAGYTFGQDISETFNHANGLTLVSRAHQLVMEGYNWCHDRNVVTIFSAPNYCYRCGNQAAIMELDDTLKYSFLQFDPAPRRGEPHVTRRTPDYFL
3xFLAG-tagged PP2Acβ ΔL mutant (Leu 309 deleted): residues 1-308 of P62714

Key:
Assay in all cases: affinity purification with mass spectrometry; 3xFLAG-tagged catalytic subunit (WT or ΔL) transfected in FreeStyle 293F cells; FLAG M2 affinity gel, 3 h at 4 °C; lysis and wash buffer 50 mM Tris pH 7.5, 500 mM NaCl, 0.5% Triton X-100; eluted with 3XFLAG peptide; label-free quantitative LC-MS/MS on unique peptides, three replicates
[1] = target: 3xFLAG-tagged PP2Acβ, wild type (human) (UniProt P62714)
[2] = target: 3xFLAG-tagged PP2Acβ ΔL mutant (Leu 309 deleted) (human) (UniProt P62714)
[3] = target: T1, 3xFLAG-tagged PP4c, wild type (human) (UniProt P60510)
T1 sequence: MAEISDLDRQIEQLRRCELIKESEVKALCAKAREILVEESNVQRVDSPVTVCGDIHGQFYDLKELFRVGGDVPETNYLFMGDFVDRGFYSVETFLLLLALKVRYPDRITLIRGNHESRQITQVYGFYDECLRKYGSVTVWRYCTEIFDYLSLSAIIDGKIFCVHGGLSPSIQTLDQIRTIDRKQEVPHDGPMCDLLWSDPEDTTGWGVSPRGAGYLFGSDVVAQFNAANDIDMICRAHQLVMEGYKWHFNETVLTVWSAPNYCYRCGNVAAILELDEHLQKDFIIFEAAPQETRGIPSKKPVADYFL

[4] = target: T2, 3xFLAG-tagged PP6c, wild type (human) (UniProt O00743)
T2 sequence: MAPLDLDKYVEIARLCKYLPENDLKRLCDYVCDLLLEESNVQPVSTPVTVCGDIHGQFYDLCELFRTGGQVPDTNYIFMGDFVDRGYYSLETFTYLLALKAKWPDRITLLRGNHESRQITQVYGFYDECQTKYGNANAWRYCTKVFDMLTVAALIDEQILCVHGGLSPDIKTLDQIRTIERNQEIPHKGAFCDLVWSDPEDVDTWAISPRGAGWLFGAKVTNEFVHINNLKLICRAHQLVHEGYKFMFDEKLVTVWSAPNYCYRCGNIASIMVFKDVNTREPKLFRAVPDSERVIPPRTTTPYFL

[5] = target: T3, 3xFLAG-tagged PP6c ΔL mutant (Leu 305 deleted) (human) (UniProt O00743)
T3 sequence: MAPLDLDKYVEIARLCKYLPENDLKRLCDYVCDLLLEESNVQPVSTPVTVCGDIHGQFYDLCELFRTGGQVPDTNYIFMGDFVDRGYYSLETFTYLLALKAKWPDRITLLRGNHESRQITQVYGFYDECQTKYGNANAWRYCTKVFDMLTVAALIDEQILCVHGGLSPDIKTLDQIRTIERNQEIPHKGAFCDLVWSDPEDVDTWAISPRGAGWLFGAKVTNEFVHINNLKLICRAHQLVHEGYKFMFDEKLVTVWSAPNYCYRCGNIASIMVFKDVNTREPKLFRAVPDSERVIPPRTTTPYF

B2: PR72/PR130, PP2A regulatory subunit of the B72 family (protein, UniProt Q06190 1-1150)
chain: MAATYRLVVSTVNHYSSVVIDRRFEQAIHYCTGTCHTFTHGIDCIVVHHSVCADLLHIPVSQFKDADLNSMFLPHENGLSSAEGDYPQQAFTGIPRVKRGSTFQNTYNLKDIAGEAISFASGKIKEFSFEKLKNSNHAAYRKGRKVKSDSFNRRSVDLDLLCGHYNNDGNAPSFGLLRSSSVEEKPLSHRNSLDTNLTSMFLQNFSEEDLVTQILEKHKIDNFSSGTDIKMCLDILLKCSEDLKKCTDIIKQCIKKKSGSSISEGSGNDTISSSETVYMNVMTRLASYLKKLPFEFMQSGNNEALDLTELISNMPSLQLTPFSPVFGTEQPPKYEDVVQLSASDSGRFQTIELQNDKPNSRKMDTVQSIPNNSTNSLYNLEVNDPRTLKAVQVQSQSLTMNPLENVSSDDLMETLYIEEESDGKKALDKGQKTENGPSHELLKVNEHRAEFPEHATHLKKCPTPMQNEIGKIFEKSFVNLPKEDCKSKVSKFEEGDQRDFTNSSSQEEIDKLLMDLESFSQKMETSLREPLAKGKNSNFLNSHSQLTGQTLVDLEPKSKVSSPIEKVSPSCLTRIIETNGHKIEEEDRALLLRILESIEDFAQELVECKSSRGSLSQEKEMMQILQETLTTSSQANLSVCRSPVGDKAKDTTSAVLIQQTPEVIKIQNKPEKKPGTPLPPPATSPSSPRPLSPVPHVNNVVNAPLSINIPRFYFPEGLPDTCSNHEQTLSRIETAFMDIEEQKADIYEMGKIAKVCGCPLYWKAPMFRAAGGEKTGFVTAQSFIAMWRKLLNNHHDDASKFICLLAKPNCSSLEQEDFIPLLQDVVDTHPGLTFLKDAPEFHSRYITTVIQRIFYTVNRSWSGKITSTEIRKSNFLQTLALLEEEEDINQITDYFSYEHFYVIYCKFWELDTDHDLYISQADLSRYNDQASSSRIIERIFSGAVTRGKTIQKEGRMSYADFVWFLISEEDKRNPTSIEYWFRCMDVDGDGVLSMYELEYFYEEQCERMEAMGIEPLPFHDLLCQMLDLVKPAVDGKITLRDLKRCRMAHIFYDTFFNLEKYLDHEQRDPFAVQKDVENDGPEPSDWDRFAAEEYETLVAEESAQAQFQEGFEDYETDEPASPSEFGNKSNKILSASLPEKCGKLQSVDEE
binding [1]: binds | binding [2]: binds

B5: ANKRD52, Ankyrin repeat subunit of PP6 (protein, UniProt Q8NB46 1-1076)
chain: MGILSITDQPPLVQAIFSRDVEEVRSLLSQKENINVLDQERRTPLHAAAYVGDVPILQLLLMSGANVNAKDTLWLTPLHRAAASRNEKVLGLLLAHSADVNARDKLWQTPLHVAAANRATKCAEALAPLLSSLNVADRSGRSALHHAVHSGHLETVNLLLNKGASLNVCDKKERQPLHWAAFLGHLEVLKLLVARGADLGCKDRKGYGLLHTAAASGQIEVVKYLLRMGAEIDEPNAFGNTALHIACYLGQDAVAIELVNAGANVNQPNDKGFTPLHVAAVSTNGALCLELLVNNGADVNYQSKEGKSPLHMAAIHGRFTRSQILIQNGSEIDCADKFGNTPLHVAARYGHELLISTLMTNGADTARRGIHDMFPLHLAVLFGFSDCCRKLLSSGQLYSIVSSLSNEHVLSAGFDINTPDNLGRTCLHAAASGGNVECLNLLLSSGADLRRRDKFGRTPLHYAAANGSYQCAVTLVTAGAGVNEADCKGCSPLHYAAASDTYRRAEPHTPSSHDAEEDEPLKESRRKEAFFCLEFLLDNGADPSLRDRQGYTAVHYAAAYGNRQNLELLLEMSFNCLEDVESTIPVSPLHLAAYNGHCEALKTLAETLVNLDVRDHKGRTALFLATERGSTECVEVLTAHGASALIKERKRKWTPLHAAAASGHTDSLHLLIDSGERADITDVMDAYGQTPLMLAIMNGHVDCVHLLLEKGSTADAADLRGRTALHRGAVTGCEDCLAALLDHDAFVLCRDFKGRTPIHLASACGHTAVLRTLLQAALSTDPLDAGVDYSGYSPMHWASYTGHEDCLELLLEHSPFSYLEGNPFTPLHCAVINNQDSTTEMLLGALGAKIVNSRDAKGRTPLHAAAFADNVSGLRMLLQHQAEVNATDHTGRTALMTAAENGQTAAVEFLLYRGKADLTVLDENKNTALHLACSKGHEKCALMILAETQDLGLINATNSALQMPLHIAARNGLASVVQALLSHGATVLAVDEEGHTPALACAPNKDVADCLALILSTMKPFPPKDAVSPFSFSLLKNCSIAAAKTVGGCGALPHGASCPYSQERPGAIGLDGCYSE
binding [4]: binds | binding [5]: binds

Results, then the binder that gave them:

binding [1]: binds | binding [2]: binds
B1: PR48, PP2A regulatory subunit of the B72 family (protein, UniProt Q9Y5P8 1-575)
chain: MPPGKVLQPVLKMKVDELFLYWLSEASTQRMLQDCLRRIKAPGRDQPTPGDGEQPGAWPTAPLAAPRPSGLEPPGTPGPGPALPLGAASSPRNAPHVRGTRRSAGTRVVQTRKEEPLPPATSQSIPTFYFPRGRPQDSVNVDAVISKIESTFARFPHERATMDDMGLVAKACGCPLYWKGPLFYGAGGERTGSVSVHKFVAMWRKILQNCHDDAAKFVHLLMSPGCNYLVQEDFVPFLQDVVNTHPGLSFLKEASEFHSRYITTVIQRIFYAVNRSWSGRITCAELRRSSFLQNVALLEEEADINQLTEFFSYEHFYVIYCKFWELDTDHDLLIDADDLARHNDHALSTKMIDRIFSGAVTRGRKVQKEGKISYADFVWFLISEEDKKTPTSIEYWFRCMDLDGDGALSMFELEYFYEEQCRRLDSMAIEALPFQDCLCQMLDLVKPRTEGKITLQDLKRCKLANVFFDTFFNIEKYLDHEQKEQISLLRDGDSGGPELSDWEKYAAEEYDILVAEETAGEPWEDGFEAELSPVEQKLSALRSPLAQRPFFEAPSPLGAVDLYEYACGDEDLEPL

binding [3]: binds
B3: PP4R2, PP4 regulatory subunit (protein, UniProt Q9NY27 1-417)
chain: MDVERLQEALKDFEKRGKKEVCPVLDQFLCHVAKTGETMIQWSQFKGYFIFKLEKVMDDFRTSAPEPRGPPNPNVEYIPFDEMKERILKIVTGFNGIPFTIQRLCELLTDPRRNYTGTDKFLRGVEKNVMVVSCVYPSSEKNNSNSLNRMNGVMFPGNSPSYTERSNINGPGTPRPLNRPKVSLSAPMTTNGLPESTDSKEANLQQNEEKNHSDSSTSESEVSSVSPLKNKHPDEDAVEAEGHEVKRLRFDKEGEVRETASQTTSSEISSVMVGETEASSSSQDKDKDSRCTRQHCTEEDEEEDEEEEEESFMTSREMIPERKNQEKESDDALTVNEETSEENNQMEESDVSQAEKDLLHSEGSENEGPVSSSSSDCRETEELVGSNSSKTGEILSESSMENDDEATEVTDEPMEQD

binding [3]: binds
B4: PP4R4, PP4 regulatory subunit (protein, UniProt Q6NUP7 1-873)
chain: MHPPPPAAAMDFSQNSLFGYMEDLQELTIIERPVRRSLKTPEEIERLTVDEDLSDIERAVYLLSAGQDVQGTSVIANLPFLMRQNPTETLRRVLPKVREALHVAGVEMQLTAAMSFLTILQDESVSIHAYTHSFLQVILLHLEHRDTGVSNAWLETLLSVIEVLPKETLRHEILNPLVSKAQLSQTVQSRLVSCKILGKLTNKFDAHTIKREILPLVKSLCQDVEYEVRSCMCRQLENIAQGIGTELTKSVVLPELIELSRDEGSSVRLAAFETLVNLLDIFDTDDRSQTILPLVKSFCEKSFKADESILISLSFHLGKLCHGLYGIFTPDQHLRFLEFYKKLCTLGLQQENGHNENQIPPQILEQEKKYISVRKNCAYNFPAMIVFVDPKNFHMELYSTFFCLCHDPEVPVRYTIAICFYEVSKLLNSGVYLIHKELITLLQDESLEVLDALIDHLPEILELMSTGGESSVQENKLSSLPDLIPALTAAEQRAAASLKWRTHEKLLQKYACLPHVISSDQIYYRFLQRMFTIMMTNNVLPVQKAASRTLCIFLRYNRKQEQRHEVIQKLIEQLGQGKSYWNRLRFLDTCEFIIEIFSKSFFCKYFFLPAIELTHDPVANVRMKLCYLLPKVKSTLKIPADKHLLQQLEMCVRKLLCQEKDKDVLAIVKRTVLELDRMEMSMDAFQKKFYEKDLLDQEKEREELLLLEMEQLEKEKQQNDGRPMSDKMFEKKRRDTKTPTQSLPKNIPISVPGPSSVTPSTSKEIKKSKLIRSQSFNNQAFHAKYGNLEKCASKSSTTGYTTSVSGLGKTSVLSLADDSFRTRNASSVPSSFSPNTPLPSTSRGTGNSVDPKSSGSKDTQPRKATLKSRKSNP
